The values that follow come from patent US20080227954A1 (ZEALAND PHARMA A S, published 2008).

Amino acid sequences for entries named in this document (tags omitted).
UniProt P79350: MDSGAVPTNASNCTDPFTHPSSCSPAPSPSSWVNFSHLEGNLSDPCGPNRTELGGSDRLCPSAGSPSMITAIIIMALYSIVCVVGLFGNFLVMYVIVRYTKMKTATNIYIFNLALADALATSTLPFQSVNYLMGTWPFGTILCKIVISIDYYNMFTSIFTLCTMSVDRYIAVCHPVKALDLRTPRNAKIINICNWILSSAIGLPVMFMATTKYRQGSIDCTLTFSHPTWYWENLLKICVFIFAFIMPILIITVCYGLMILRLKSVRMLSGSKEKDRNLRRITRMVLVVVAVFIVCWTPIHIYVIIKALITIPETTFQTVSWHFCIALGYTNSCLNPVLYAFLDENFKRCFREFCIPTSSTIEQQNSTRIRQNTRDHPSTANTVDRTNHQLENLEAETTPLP

These are yes or no findings as the source states them, for the method shown. Some binding calls cover weakened binding; strength is not graded here. Where no end group is shown, it is not given here.

The assay has as its target µ opioid receptor (bovine caudate nucleus synaptic membrane fraction) (bovine) (UniProt P79350). Kind of assay: displacement of [3H]DAMGO, bovine caudate synaptic membranes. Background: In a radioligand displacement assay an active substance lowers the binding of a labelled ligand.

Take YGGFLKEKEKE-OH [Leu-Enkephalin-(Lys-Glu)3-OH]: the binding result is given as “binds”.
